Results reported in patent US6552060B1, “Asymmetric disulfides and methods of using same” (Prolx Pharmaceuticals, Inc., priority 1997, dated 2003).
For at least one compound, name, drawing or mass did not settle the structure.

Test system: EMT6 mouse mammary tumor cells
Experiment: Cytotoxicity against EMT6 cells in culture (MTT)
Conditions: read-out: Disulfide Cytotoxicity (IC50), Table 5, 48 h exposure

CC(C)CSSC1=NCCS1 [Compound G-25]
IC50: 38 µM
